Assay results taken from paper PMC6099276.
No constants are given. Whether binding was seen depends on the method and setting. For part of these data: A result given as binding can be weak or reduced; the word gives no strength.

Tests used:
Assay in all cases: two-hybrid; split-ubiquitin yeast two-hybrid; USL1 forms as Cub fusions (MetYCgate), NubG-VPS30 (pPR3-N); yeast strain NMY51; growth on SD-Trp-Leu-His-Ade
[1] = biological target: USL1ΔCC1-Cub (Arabidopsis thaliana) (UniProt Q8S9J3)
[2] = biological target: USL1ΔC-Cub (Arabidopsis thaliana)
[3] = biological target: USL1ΔCC2-Cub (Arabidopsis thaliana) (UniProt Q8S9J3)

B1: NubG-VPS30 (protein, UniProt Q9M367 1-517)
chain: MRKEEIPDKSRTIPIDPNLPKWVCQNCHHSLTIVGVDSYAGKFFNDPPPSATQGSSIHGANSVLGSTRMDNSFVVLPRHKPPQSQGIPPRPRGASSPQPDATQSGKAMEESFVVVYKSEPVSDSGGSHNLSLEVGQNGPLHSNTSGFNATINVLTRAFDIARTQTQVEQPLCLECMRVLSDKLEKEVEDVTRDVEAYEACVQRLEGETQDVLSEADFLKEKKKIEEEERKLVAAIEETEKQNAEVNHQLKELEFKGNRFNELEDRYWQEFNNFQFQLIAHQEERDAILAKIEVSQAHLELLNKTNVLIDAFPIRNDGEFGTINNFRLGRLPAIKVEWDEINAAWGQACLLLHTMCNYFRPKFQCQVKIQPMGSYPRIVDSNNETYELFGPVNLFWSTRYDKAMTLYLMCLKDFADFANSKDQENNIPPDNCLNLPYKIEKDKVLGYSITQSFNKQESWTKALKYTLCNLKWALYWFVGNTNFQPLSATVSLPSNISAAGSLYAKRGPDSSKPSCKKT
[1]
  binding: no binding
[2]
  binding: binds
[3]
  binding: no binding
